A short description of series [1]: general procedure: Fmoc solid-phase peptide synthesis; Rink Amide MBHA resin; PyBOP, DIPEA. The conditions noted are these: for step yield: late stage modification step; for conjugation yield: conjugation step.
Series [2] is described as follows: general procedure: Fmoc solid-phase peptide synthesis; Rink Amide MBHA; PyBOP, DIPEA. The conditions noted are these: whole synthesis.

The substance DTPA-Lys(FITC)-Lys(Alkyne)-βAla-Cys came in with a step yield in series [1] of 34% yield.
DTPA-Lys(FITC)-Lys(H)-βAla-Cys(H)—NH2 showed an isolated yield in series [2] of 87% yield.
For “DTPA-Lys(FITC)-Lys(Alkyne)-βAla-Cys(NHS^a)”, the step yield in series [1] is 71% yield.
On to “DTPA-Lys(FITC)-Lys(PEG8-N3)-βAla-Cys(MAL^a)”, for which the conjugation yield in series [1] is 20% yield.
Still for that read-out and setting: to DTPA-Lys(FITC)-Lys(PEG8)-βAla-Cys belongs 11.6% yield.

For the origin of these results see US8546531B2 (The General Hospital Corporation, priority 2008, dated 2013).
